This is one part of the list. The main result of the screen is listed elsewhere. These columns were measured beside it and carry no call. Most of these compounds were active or inconclusive in the main read-out, so they are no random draw. Words in brackets tell the shape of the fitted curve; partial curves, single points and poor fits give uncertain potencies.

This assay can be described thus: Cell signaling CRE-BLA (Fsk stim). To be noted: CHO CRE-bla reporter (cAMP response element driving beta-lactamase), forskolin EC10, beta-lactamase ratio; measured here: 460 nm blue channel. In a few lines:
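CHO CRE-bla cells, overnight plating in Opti-MEM with 0.5% dialyzed FBS; cpd titration + EC10 NKH 477, 3 h 37 °C; CCF4 2 h RT; ex 405/em 460 vs 530 ratio → %Activity, AC50.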
As to `Cc1cc(OC2CCCCC2)nc(-c2ccccc2O)n1`, the AC50 was 0.398 µM [rising, full curve]. Then `Cc1ccc(-n2c(SCC(=O)Nc3cc(C)on3)nc3c(c2=O)SC(C)C3)cc1` (configuration not stated), with 20 µM [rising, single point]; and `C=CCNc1nc(N(c2ccccc2)c2ccccc2)nc(-n2ccnc2)n1`, with 1.26 µM [rising, full curve]. `COc1ccccc1N1CCN(C(=O)C(NS(=O)(=O)c2cccs2)c2ccccc2)CC1` (configuration not stated): the AC50 is 0.158 µM [falling, full curve]. Then `Cn1c(=O)c(-c2ccccc2)nc2cnc(N3CCNCC3)nc21`, with 5.01 µM [rising, partial curve]. Then `NCCC[C@@H](CC(=O)N[C@@H]1CCCC[C@H]1C(=O)N[C@H](CC(=O)N[C@@H](CCC(=O)O)CC(=O)O)Cc1ccccc1)NC(=O)C[C@H](CO)NC(=O)[C@@H]1CNCC[C@H]1N`, with 10 µM [falling, full curve]; and `Cc1nn(Cc2ccccc2)c(C)c1NC(=O)c1cc(-c2ccc3c(c2)OCO3)on1`, with 0.158 µM [rising, full curve, poor fit]. Then `CNC(=O)NC(=O)CSc1nc2cc(C(=O)OC)ccc2c(=O)n1-c1ccccc1`, with 5.01 µM [falling, single point]; and `Cc1cc(C)n(-c2nc3c(c(=O)[nH]c(=O)n3C)n2CC(O)COc2ccccc2C)n1` (configuration not stated), with 10 µM [rising, partial curve]; and `Cc1ccccc1-c1ccc2ncnc(N(C)Cc3ccco3)c2c1`, with 10 µM [rising, partial curve]. With `CCOCCCNC(=O)c1ccc2c(c1)OCO2`, the AC50 is 0.631 µM [rising, full curve, poor fit]. As for `O=c1c(-c2cccc(F)c2)nc2cncnc2n1Cc1ccc(F)cc1`, the AC50 is 7.94 µM [rising, partial curve].

On to `CCOC(=O)Cc1nnc(NC(=O)CSc2nncn2C)s1`, for which the AC50 was 3.98 µM [rising, single point]. On to `CCc1nnc(NC(=O)CCC(=O)N2CCN(Cc3cc(Cl)ccc3OC)CC2)s1`, for which the AC50 was 5.01 µM [falling, single point].

For `Clc1ccccc1CNc1ncnc2nc[nH]c12`, the concentration at half-maximal activity (AC50) is 25.1 µM [falling, single point]. Then `CCOC(=O)Nc1cc(C(=O)OC)cc(C(=O)OC)c1`, with 25.1 µM [rising, single point].

As to `COC(=O)c1c(-c2cccs2)csc1NC(=O)CN1CCOCC1`, the AC50 is 2 µM [rising, full curve].

In the case of `Cc1ccc(-n2nc(-c3ccc(N)cc3)cc2N)cc1`, the AC50 was 25.1 µM [falling, single point]. In the case of `Cc1onc(-c2ccccc2Cl)c1C(=O)Nc1ccc(OCC(=O)N2CCOCC2)cc1`, the AC50 is 0.398 µM [rising, partial curve]. Then `COc1ccc(OC)c(NC(=O)COc2ccc(S(=O)(=O)NC(C)C)cc2)c1`, with 10 µM [rising, single point].

As for `O=C(NCc1ccco1)Nc1ccc2nsnc2c1`, the AC50 was 10 µM [falling, partial curve].

In the case of `CC(C)(C)NC(=O)CSc1nnc(CN2CCCCCC2=O)n1-c1ccccn1`, the AC50 is 5.01 µM [falling, single point].

With `Cc1c(C(=O)NCc2ccc3c(c2)OCO3)oc2ccccc12`, the AC50 was 25.1 µM [falling, single point]. For `O=C(Cc1ccccc1)Nc1ccc2oc(-c3cccnc3)nc2c1`, the AC50 is 12.6 µM [rising, partial curve].

As for `COc1ccccc1CCn1c(=O)cnc2cncnc21`, the AC50 is 25.1 µM [rising, single point].

Consider `Cc1ccc2nc(NCc3ccco3)c(C=NCc3ccco3)c(=O)n2c1`, for which the AC50 is 12.6 µM [rising, partial curve]. With `Cc1cc(C)n2cc(CSC3=NCCS3)nc2n1`, the AC50 is 3.16 µM [falling, partial curve]. On to `c1cc2c(cc1Nc1nc(-c3ccc4c(c3)OCO4)cs1)OCCO2`, for which the AC50 was 25.1 µM [falling, single point]. Then `C=CCSc1nnc2nc3c(nn12)c1cc(C)ccc1n3CC=C`, with 12.6 µM [rising, partial curve]; and `CC1=CC(=C(C#N)c2nc3ccccc3s2)C=C(C)N1Cc1ccco1`, with 3.98 µM [rising, full curve]. `CCCCOCCCNC(=O)c1ccc2c(c1)OCO2`: the AC50 is 0.00316 µM [falling, full curve].

Regarding `Cc1nnc(SCCn2c(N3CCCC(C)C3)nc3c2c(=O)[nH]c(=O)n3C)s1` (configuration not stated), the AC50 is 10 µM [rising, single point].

With `COc1cc2c(cc1NC(=O)CC1SC(N3CCCC3)=NC1=O)oc1ccccc12` (configuration not stated), the AC50 was 20 µM [falling, single point]. To `COc1ccc(C(=O)NC2=C(C#N)CCC2)cc1OC` belongs 7.94 µM [rising, partial curve]; to `CC(C)(C)NC(=O)Cn1cc(C#N)c2cc(Br)ccc21`, 3.16 µM [falling, full curve]. For `O=C(NCCC1=CCCCC1)N[C@@H](Cc1ccccc1)C(=O)O`, the AC50 is 10 µM [falling, partial curve]. To `Cc1ccc(-c2nnn(CC(=O)N(Cc3cccs3)C(C(=O)NC(C)(C)C)c3ccc(C)o3)n2)o1` (configuration not stated) belongs 25.1 µM [falling, single point]; to `CN(C)c1ncc2nc(-c3cn(C)c4ccccc34)c(=O)n(C[C@H]3CCCO3)c2n1`, 5.01 µM [rising, partial curve]; to `O=C1Nc2ccc(S(=O)(=O)NCCC3=CCCCC3)c3cccc1c23`, 15.8 µM [rising, single point]. `CCOc1cccc(C=Nc2cc(C)cc(C)c2O)c1O`: the AC50 was 7.94 µM [falling, partial curve]. Turning to `COc1ccc(OC)c(-c2cc(C(=O)N3CCc4ccccc4C3)no2)c1`, the AC50 is 3.16 µM [rising, partial curve]. Then `COCCn1c(=O)c(-c2cccs2)nc2cnc(Oc3ccc(OC)cc3)nc21`, with 10 µM [rising, partial curve]; and `Cc1cnc(NC(=O)C(C)N2C(=O)C3CC=CCC3C2=O)s1` (configuration not stated), with 0.316 µM [falling, full curve]. Then `CCCCc1c2ccccc2nc2[nH]c3ccccc3c12`, with 5.01 µM [rising, partial curve]; and `CN1CCN(c2ccc(Cl)cc2NC(=O)c2ccc(S(=O)(=O)N3CCCCCC3)cc2)CC1`, with 0.794 µM [rising, full curve]. Then `C[C@@]12C(=O)OC(=O)[C@@]1(C)[C@@H]1CC[C@@H]2O1`, with 15.8 µM [falling, partial curve, poor fit]; and `COc1ccc2c(c1)CCc1cc(C(=O)N3CCN(c4ccc(N5CCOCC5)nn4)CC3)sc1-2`, with 3.16 µM [rising, partial curve]; and `CCCOc1ccc(NC(N)=O)cc1OCCC`, with 15.8 µM [falling, partial curve, poor fit].

Regarding `COCCn1c(=O)c(CCc2ccccc2)nc2cnc(N3CCNCC3)nc21`, the AC50 is 12.6 µM [rising, partial curve]. Take `CN1CCN(c2ncc3nc(-c4cccs4)c(=O)n(-c4ccccc4)c3n2)CC1`: the AC50 was 12.6 µM [rising, partial curve].

For `CC1CCCC(C)N1C(=O)c1cc(-c2ccc(Cl)c(Cl)c2)on1` (configuration not stated), the AC50 was 7.94 µM [rising, partial curve]. `CCCOc1ccc2ccccc2c1/C=N/n1cnnc1`: the AC50 is 0.398 µM [rising, full curve].

Turning to `CCCCCn1c(N2CCN(Cc3ccccc3)CC2)nc2c1c(=O)[nH]c(=O)n2C`, the AC50 is 15.8 µM [rising, partial curve, poor fit]. Then `Cc1cc(N2CCN(S(=O)(=O)c3ccc4c(c3)OCCO4)CC2)n2ncnc2n1`, with 5.01 µM [rising, partial curve].

For the molecule `O=c1c(-c2cccc(Cl)c2)nc2cncnc2n1Cc1ccccc1`, the AC50 was 12.6 µM [rising, partial curve]. With `O=C(O)c1cc2cc(F)ccc2[nH]1`, the AC50 was 3.98 µM [falling, full curve]. As for `CCCCCCN1CC(O)=C(c2nc3ccccc3[nH]2)C1=N`, the AC50 was 3.98 µM [falling, single point]. To `O=C(c1ccco1)N1CCN(C(c2ccccc2Cl)c2nnnn2Cc2cccs2)CC1` (configuration not stated) belongs 1.58 µM [falling, partial curve]; to `COc1ccc(C2=Nn3c(nnc3-c3cccnc3)SC2)cc1`, 1 µM [rising, full curve]; to `CCc1nnc(NC(=O)C(C)N2C(=O)C3C4C=CC(C4)C3C2=O)s1` (configuration not stated), 0.0398 µM [falling, full curve]. Then `O=C(Cn1c(NCCCO)nc2ccccc21)c1cccc(Br)c1`, with 15.8 µM [falling, partial curve]; and `Cn1c(SCC(=O)Nc2ccc3cn[nH]c3c2)nnc1-c1cnccn1`, with 0.01 µM [falling, full curve, poor fit]. To `CC(=O)N[C@H](c1ccccc1)[C@@]1(C)C[C@@H]1[C@@H](C)C(=O)Nc1ccc2ccccc2c1` belongs 3.98 µM [falling, partial curve]; to `CCCn1c(SCC(=O)N2c3ccccc3Sc3ccccc32)nc2c1c(=O)n(C)c(=O)n2C`, 3.16 µM [rising, partial curve]; to `O=C(Nc1ccc(Cl)c(C(F)(F)F)c1)N1CCCC(O)C1` (configuration not stated), 10 µM [falling, partial curve, poor fit]. With `Cn1c(C(=O)NC2CCCCCC2)cc2c(=O)n(C)c3ccccc3c21`, the AC50 is 2.51 µM [rising, full curve]. In the case of `CCCCn1nc(NC(=O)c2cccs2)c2cc3cc(OC)ccc3nc21`, the AC50 is 10 µM [rising, partial curve].

The values above are taken from PubChem BioAssay AID662 (National Center for Advancing Translational Sciences (NCATS), 2007).
